According to the supplement of paper PMC4604168 (melanoma cell lines):
Some of the results follow. Repeats are few or missing, and single values can be far off.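 Imaging used 1,536-well plates; nuclei positive for cleaved PARP by antibody were divided by total DNA-stained nuclei to yield the apoptosis fraction. Doses for screening kept most cells viable, and cell lines differ markedly in resting and induced cleaved-PARP levels.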

Legend:
Assay in all cases: cleaved PARP positive nuclei fraction relative to DMSO control; melanoma cells; higher = more apoptosis
Conditions in all cases: library dose: low library concentration; 72 h
MeWo = tested on: MeWo
RPMI7951 = tested on: RPMI7951
RVH-421 = tested on: RVH-421
SkMel28 = tested on: SkMel28
SkMel30 = tested on: SkMel30
UACC62 = tested on: UACC62
SkMel5 = tested on: SkMel5
UACC257 = tested on: UACC257

Compound	cleaved PARP positive nuclei fraction (MeWo) [%]	cleaved PARP positive nuclei fraction (RPMI7951) [%]	cleaved PARP positive nuclei fraction (RVH-421) [%]	cleaved PARP positive nuclei fraction (SkMel28) [%]	cleaved PARP positive nuclei fraction (SkMel30) [%]	cleaved PARP positive nuclei fraction (UACC62) [%]	cleaved PARP positive nuclei fraction (SkMel5) [%]	cleaved PARP positive nuclei fraction (UACC257) [%]
C[C@]12O[C@H](C[C@]1(O)CO)n1c3ccccc3c3c4c(c5c6ccccc6n2c5c31)CNC4=O [Lestaurtinib] + C[C@@H](Oc1cc(-c2cnn(C3CCNCC3)c2)cnc1N)c1c(Cl)ccc(F)c1Cl [Crizotinib] (first compound 0.004 µM, partner dose 0.2 µM)	88.9	199	177	18.9	314	93.6		
Cc1ccc(NC(=O)c2cccc(N(C)C)c2)cc1NC(=O)c1ccc(O)cc1 + Cc1cc(SCc2sc(-c3ccc(C(F)(F)F)c(F)c3)nc2C)ccc1OCC(=O)O [GW0742] (first compound 2 µM, partner dose 2 µM)	165	44.5	46	75.9	124	32.2	42.9	153
C[As](C)SC[C@H](NC(=O)CC[C@H](N)C(=O)O)C(=O)NCC(=O)O [Darinaparsin] + COc1ccc(-c2ccc3c(N4CCOCC4)nc(N4C[C@@H](C)O[C@@H](C)C4)nc3n2)cc1CO [KU0063794] (first compound 0.4 µM, partner dose 0.02 µM)	171	106	129	93.4	162	241	198	66.2
C[As](C)SC[C@H](NC(=O)CC[C@H](N)C(=O)O)C(=O)NCC(=O)O [Darinaparsin] + COc1ccc(Cl)c(Nc2nc3ccccc3nc2NS(=O)(=O)c2cccc(NC(=O)C(C)(C)N)c2)c1 [XL147] (first compound 0.4 µM, partner dose 0.8 µM)	58	45.6	166	75.1	16.7	92		
O=C(CCCCCCC(=O)Nc1ccccc1)NO [vorinostat] + O=C(Oc1ccc([N+](=O)[O-])cc1)N1CCC(C(O)(c2ccc3c(c2)OCO3)c2ccc3c(c2)OCO3)CC1 [JZL184] (first compound 0.08 µM, partner dose 1 µM)	222	39.7	15	161	41.2	515	33.5	176
C[C@]12O[C@H](C[C@]1(O)CO)n1c3ccccc3c3c4c(c5c6ccccc6n2c5c31)CNC4=O [Lestaurtinib] + Cn1nnc2c(C(N)=O)ncn2c1=O [temozolomide] (first compound 0.004 µM, partner dose 2 µM)	29.9	53.4	77.6	99.7	225	177		
CC(=O)O[C@@]12CO[C@@H]1C[C@H](O)[C@@]1(C)C(=O)[C@H](O)C3=C(C)[C@@H](OC(=O)[C@H](O)[C@@H](NC(=O)OC(C)(C)C)c4ccccc4)C[C@@](O)([C@@H](OC(=O)c4ccccc4)[C@H]21)C3(C)C [Docetaxel] + C[As](C)SC[C@H](NC(=O)CC[C@H](N)C(=O)O)C(=O)NCC(=O)O [Darinaparsin] (first compound 0.0001 µM, partner dose 0.4 µM)	875	234	460	194	629	375		
N.N.[Cl][Pt][Cl] [cisplatin] + C=CCn1c(=O)c2cnc(Nc3ccc(N4CCN(C)CC4)cc3)nc2n1-c1cccc(C(C)(C)O)n1 [MK1775] (first compound 1.6 µM, partner dose 0.02 µM)	154	150	79.2	159	73.3	199	73	126
C[As](C)SC[C@H](NC(=O)CC[C@H](N)C(=O)O)C(=O)NCC(=O)O [Darinaparsin] + O=C(Oc1ccc([N+](=O)[O-])cc1)N1CCC(C(O)(c2ccc3c(c2)OCO3)c2ccc3c(c2)OCO3)CC1 [JZL184] (first compound 0.4 µM, partner dose 1 µM)	129	66.9	95.6	163	116	156	66	151
C[C@@H]1CCN(C(=O)CC#N)C[C@@H]1N(C)c1ncnc2[nH]ccc12 + O=C(Oc1ccc([N+](=O)[O-])cc1)N1CCC(C(O)(c2ccc3c(c2)OCO3)c2ccc3c(c2)OCO3)CC1 [JZL184] (first compound 1 µM, partner dose 1 µM)	99	40.6	98.7	64.3	28.7	89.7	80.7	131
COc1ccc(COc2ccc(Cc3cnc(N)nc3N)cc2OC)cc1 + O=C(Oc1ccc([N+](=O)[O-])cc1)N1CCC(C(O)(c2ccc3c(c2)OCO3)c2ccc3c(c2)OCO3)CC1 [JZL184] (first compound 1 µM, partner dose 1 µM)	206	81.3	97.2	115	25.8	370	63.3	155
O=c1[nH]nc(Sc2ncc([N+](=O)[O-])s2)n1-c1ccc2c(c1)OCCO2 + C[C@]12O[C@H](C[C@]1(O)CO)n1c3ccccc3c3c4c(c5c6ccccc6n2c5c31)CNC4=O [Lestaurtinib] (first compound 0.2 µM, partner dose 0.004 µM)	110	137	45.9	18.6	111	102		
Cn1c(Nc2ccc(C(F)(F)F)cc2)nc2cc(Oc3ccnc(-c4ncc(C(F)(F)F)[nH]4)c3)ccc21 + O=C(Oc1ccc([N+](=O)[O-])cc1)N1CCC(C(O)(c2ccc3c(c2)OCO3)c2ccc3c(c2)OCO3)CC1 [JZL184] (first compound 0.08 µM, partner dose 1 µM)	153	132	59.7	266	28.9	523	81.2	1340
C=CCn1c(=O)c2cnc(Nc3ccc(N4CCN(C)CC4)cc3)nc2n1-c1cccc(C(C)(C)O)n1 + C/C(O)=C(\C#N)C(=O)Nc1cc(Br)ccc1Br [LFM-A13] (first compound 0.02 µM, partner dose 2 µM)	109	203	47.6	94.8	66.2	195	61.2	94.3
O=C(O)c1ccc2c(c1)nc(Nc1cccc(Cl)c1)c1ccncc12 + C/C(O)=C(\C#N)C(=O)Nc1cc(Br)ccc1Br [LFM-A13] (first compound 0.4 µM, partner dose 2 µM)	87.1	176	39.5	167	44.8	119	41.5	314
C[C@]12O[C@H](C[C@]1(O)CO)n1c3ccccc3c3c4c(c5c6ccccc6n2c5c31)CNC4=O [Lestaurtinib] + Cc1nc(Nc2ncc(C(=O)Nc3c(C)cccc3Cl)s2)cc(N2CCN(CCO)CC2)n1 [dasatanib] (first compound 0.004 µM, partner dose 0.004 µM)	92.2	233	90.2	40.8	75.8	49.8		
Cc1cc(SCc2sc(-c3ccc(C(F)(F)F)c(F)c3)nc2C)ccc1OCC(=O)O + O=c1cc(-c2cccc3c2Sc2ccccc2S3)oc(N2CCOCC2)c1 [KU55933] (first compound 2 µM, partner dose 1 µM)	51.3	73.9	82.4	40.4	309	101	115	31
Cn1cc(C2=C(c3cn(C4CCN(Cc5ccccn5)CC4)c4ccccc34)C(=O)NC2=O)c2ccccc21 [Enzastaurin] + CC(C)(C)c1cnc(CSc2cnc(NC(=O)C3CCNCC3)s2)o1 [SNS-032] (first compound 0.8 µM, partner dose 0.01 µM)	196	72.6	143	80.9	61.9	149	61.8	128
C[As](C)SC[C@H](NC(=O)CC[C@H](N)C(=O)O)C(=O)NCC(=O)O [Darinaparsin] + Oc1cc(-c2nc(-c3ccccc3)[nH]c2-c2ccncc2)ccc1Cl [L779450] (first compound 0.4 µM, partner dose 0.2 µM)	107	123	93.5	141	29.2	127	29.4	91.9
O=C(O)C(=O)Nc1sc2c(c1C(=O)O)CCNC2 + C/C(O)=C(\C#N)C(=O)Nc1cc(Br)ccc1Br [LFM-A13] (first compound 1.66667 µM, partner dose 2 µM)	107	44	57.2	166	32.3	105	112	182

No new results follow: an excerpt of the list.
Compound	cleaved PARP positive nuclei fraction (MeWo) [%]	cleaved PARP positive nuclei fraction (RPMI7951) [%]	cleaved PARP positive nuclei fraction (RVH-421) [%]	cleaved PARP positive nuclei fraction (SkMel28) [%]	cleaved PARP positive nuclei fraction (SkMel30) [%]	cleaved PARP positive nuclei fraction (UACC62) [%]	cleaved PARP positive nuclei fraction (SkMel5) [%]	cleaved PARP positive nuclei fraction (UACC257) [%]
Cc1ccc(NC(=O)c2cccc(N(C)C)c2)cc1NC(=O)c1ccc(O)cc1 + Cc1cc(SCc2sc(-c3ccc(C(F)(F)F)c(F)c3)nc2C)ccc1OCC(=O)O [GW0742] (first compound 2 µM, partner dose 2 µM)	165	44.5	46	75.9	124	32.2	42.9	153
C[As](C)SC[C@H](NC(=O)CC[C@H](N)C(=O)O)C(=O)NCC(=O)O [Darinaparsin] + COc1ccc(-c2ccc3c(N4CCOCC4)nc(N4C[C@@H](C)O[C@@H](C)C4)nc3n2)cc1CO [KU0063794] (first compound 0.4 µM, partner dose 0.02 µM)	171	106	129	93.4	162	241	198	66.2
C[As](C)SC[C@H](NC(=O)CC[C@H](N)C(=O)O)C(=O)NCC(=O)O [Darinaparsin] + COc1ccc(Cl)c(Nc2nc3ccccc3nc2NS(=O)(=O)c2cccc(NC(=O)C(C)(C)N)c2)c1 [XL147] (first compound 0.4 µM, partner dose 0.8 µM)	58	45.6	166	75.1	16.7	92		
O=C(CCCCCCC(=O)Nc1ccccc1)NO [vorinostat] + O=C(Oc1ccc([N+](=O)[O-])cc1)N1CCC(C(O)(c2ccc3c(c2)OCO3)c2ccc3c(c2)OCO3)CC1 [JZL184] (first compound 0.08 µM, partner dose 1 µM)	222	39.7	15	161	41.2	515	33.5	176
C[C@]12O[C@H](C[C@]1(O)CO)n1c3ccccc3c3c4c(c5c6ccccc6n2c5c31)CNC4=O [Lestaurtinib] + Cn1nnc2c(C(N)=O)ncn2c1=O [temozolomide] (first compound 0.004 µM, partner dose 2 µM)	29.9	53.4	77.6	99.7	225	177		
